Measurements reported in PMC6316800.
Results are given in words; binding and its absence hold for the method and conditions named. In cells and extracts the contact can be indirect. Some binding calls cover weakened binding; strength is not graded here.

By UniProt entry, the sequences of proteins in these tests, tags left out.
UniProt Q14980: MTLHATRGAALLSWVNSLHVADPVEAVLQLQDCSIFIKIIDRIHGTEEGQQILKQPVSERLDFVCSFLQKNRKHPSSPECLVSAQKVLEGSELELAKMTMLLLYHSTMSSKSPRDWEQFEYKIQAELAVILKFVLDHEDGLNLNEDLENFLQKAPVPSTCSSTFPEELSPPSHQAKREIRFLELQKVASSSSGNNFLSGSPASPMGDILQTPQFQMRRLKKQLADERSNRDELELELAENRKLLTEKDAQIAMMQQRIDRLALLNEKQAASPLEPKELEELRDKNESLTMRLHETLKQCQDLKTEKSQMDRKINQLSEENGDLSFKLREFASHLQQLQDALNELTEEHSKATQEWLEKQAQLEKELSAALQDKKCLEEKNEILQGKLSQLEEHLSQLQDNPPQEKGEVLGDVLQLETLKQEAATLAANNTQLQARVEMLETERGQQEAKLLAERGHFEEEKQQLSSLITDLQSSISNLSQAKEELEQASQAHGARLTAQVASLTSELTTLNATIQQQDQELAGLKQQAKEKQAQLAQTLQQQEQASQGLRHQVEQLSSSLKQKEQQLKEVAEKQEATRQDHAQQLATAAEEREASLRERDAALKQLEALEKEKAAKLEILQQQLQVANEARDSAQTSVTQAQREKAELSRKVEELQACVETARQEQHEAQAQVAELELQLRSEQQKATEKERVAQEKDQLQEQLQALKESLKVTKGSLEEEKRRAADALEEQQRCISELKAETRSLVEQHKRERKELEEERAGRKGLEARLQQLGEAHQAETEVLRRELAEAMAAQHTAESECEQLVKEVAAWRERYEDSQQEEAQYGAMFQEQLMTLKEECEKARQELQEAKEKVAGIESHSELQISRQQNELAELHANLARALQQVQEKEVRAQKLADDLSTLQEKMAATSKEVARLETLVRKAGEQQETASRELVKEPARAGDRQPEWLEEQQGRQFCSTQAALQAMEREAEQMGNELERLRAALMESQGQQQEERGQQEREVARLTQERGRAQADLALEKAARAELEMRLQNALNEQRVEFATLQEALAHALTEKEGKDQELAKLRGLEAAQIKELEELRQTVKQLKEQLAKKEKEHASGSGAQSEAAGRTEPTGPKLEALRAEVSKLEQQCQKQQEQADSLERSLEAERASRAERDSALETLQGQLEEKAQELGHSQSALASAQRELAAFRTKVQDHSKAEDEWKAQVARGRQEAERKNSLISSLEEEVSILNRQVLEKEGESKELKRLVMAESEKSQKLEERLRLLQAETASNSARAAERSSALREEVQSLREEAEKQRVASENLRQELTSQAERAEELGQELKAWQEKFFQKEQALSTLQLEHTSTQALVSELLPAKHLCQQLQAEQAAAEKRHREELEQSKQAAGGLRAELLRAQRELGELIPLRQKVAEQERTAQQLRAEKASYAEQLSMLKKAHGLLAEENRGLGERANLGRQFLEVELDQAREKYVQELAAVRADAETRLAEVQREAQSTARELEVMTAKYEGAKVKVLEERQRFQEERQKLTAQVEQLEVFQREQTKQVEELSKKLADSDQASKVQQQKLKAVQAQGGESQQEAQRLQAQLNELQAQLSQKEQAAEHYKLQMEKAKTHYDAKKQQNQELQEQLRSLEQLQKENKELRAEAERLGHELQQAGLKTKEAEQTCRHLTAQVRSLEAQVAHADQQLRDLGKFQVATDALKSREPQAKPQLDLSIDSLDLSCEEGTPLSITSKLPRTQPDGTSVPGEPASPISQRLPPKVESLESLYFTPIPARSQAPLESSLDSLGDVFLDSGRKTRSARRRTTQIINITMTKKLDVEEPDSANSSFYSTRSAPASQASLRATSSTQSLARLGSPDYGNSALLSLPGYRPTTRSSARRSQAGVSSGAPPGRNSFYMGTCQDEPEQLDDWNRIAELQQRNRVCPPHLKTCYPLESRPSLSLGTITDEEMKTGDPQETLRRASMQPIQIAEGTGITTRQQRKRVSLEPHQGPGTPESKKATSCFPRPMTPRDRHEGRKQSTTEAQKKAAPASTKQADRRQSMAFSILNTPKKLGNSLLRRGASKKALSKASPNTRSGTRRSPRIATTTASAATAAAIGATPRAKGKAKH
UniProt P03496: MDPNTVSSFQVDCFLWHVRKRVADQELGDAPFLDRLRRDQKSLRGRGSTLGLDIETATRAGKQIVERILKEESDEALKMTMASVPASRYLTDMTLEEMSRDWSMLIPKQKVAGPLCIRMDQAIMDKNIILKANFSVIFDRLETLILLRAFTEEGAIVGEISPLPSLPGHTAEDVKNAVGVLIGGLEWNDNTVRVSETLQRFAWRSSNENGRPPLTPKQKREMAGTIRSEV

Biological target: Nuclear mitotic apparatus protein 1 (human (endogenous in A549)) (UniProt Q14980)
Assay: co-IP

## Influenza A virus non-structural protein 1 (NS1), strain A/Puerto Rico/8/1934(H1N1) (from UniProt P03496 1-230)
  binding: binds
